US20130178441A1, “Methods for Extending Progression-Free Survival using 10-Propargyl-10-Deazaaminopterin” (ALLOS THERAPEUTICS, INC., priority 2010, published 2013)

Assays:
relapsed/refractory PTCL = experiment: PROPEL subset analysis: patients previously treated with ICE-based regimens (N=20) vs other patients (n=89); format: in vivo, human
Description: The prognosis of aggressive PTCL is dismal. Investigators have developed salvage regimens attempting to improve outcomes for patients with relapsed or refractory disease. One such regimen frequently used is ifosfamide, carboplatin, and etoposide (ICE) or ICE-based regimens (eg, and rituximab-ICE [RICE] and dexamethasome-ICE [DICE]). These regimens can have response rates approaching 70% and patients may proceed to a stem cell transplant, yet most patients tend to relapse quickly (Horwitz et al Blood 2005; 106:a2679). Thus, optimal approaches for patients with relapsed or refractory disease are needed, and agents based on a unique mechanism of action warrant study. This analysis was conducted to determine if pralatrexate offered a beneficial treatment option for patients after treatment with an ICE/RICE/DICE regimen. Methods: Pralatrexate was administered via intravenous push over 3 to 5 minutes at 30 mg/m^2/week for six weeks in 7-week cycles with concurrent 1 mg vitamin B12 intramuscular every 8 to 10 weeks and folic acid 1.0 to 1.25 mg by mouth once daily. 109 patients were treated with pralatrexate in the PROPEL study. All patients in the PROPEL study had received at least 1 prior therapy for PTCL. A subset of 20 patients had received ICE, RICE or DICE at some point prior to treatment with pralatrexate. […]

[1] = test system: patients with relapsed or refractory PTCL; experiment: PROPEL analysis by treatment duration: treatment discontinuation and adverse events; format: in vivo, human; conditions: 45 patients who did not complete cycle 1
Experimental: The pivotal PROPEL study of pralatrexate (FOLOTYN®) in patients with relapsed or refractory PTCL reported a rapid response to treatment in a heavily pretreated patient population. The majority of patients (63% of responders) responded by their first assessment at 7 weeks (the end of cycle 1). The present analysis assessed if there were any unique characteristics of patients who were unable to complete the first cycle of therapy and to assess the outcomes of patients who received ≧1 or ≧2 cycles of pralatrexate. Pralatrexate, a folate analog targeting dihydrofolate reductase, was approved in the United States for treatment of relapsed or refractory PTCL based on the PROPEL study. Methods: In PROPEL, patients received 30 mg/m^2 pralatrexate once weekly for 6 weeks in successive 7-week cycles. […] Cycle completion was determined receiving ≧1 dose in the following cycle. Thus, the subgroup of patients who completed ≧1 (n=64) includes those patients who only completed 1 cycle+the 43 who completed ≧2 cycles of treatment. […] However, the patients not completing cycle lwere more likely to have the angioimmunoblastic subtype (20% vs 6%). Patients in each subgroup received a median of 3 prior treatment regimens.
The most frequent reasons for treatment discontinuation were similar for patients with <1 cycle, ≧1 cycle or ≧2 cycles, although the incidence of discontinuation was lower for patients with ≧1 or 2 cycles. […] However, the percentage of patients in whom mucosal inflammation led to treatment discontinuation was similar (<1: 4%; ≧1: 6%; ≧2: 2%). […] Patients who were unable to complete cycle 1 were more likely to have quickly progressed through multiple lines of therapy and were more likely to have the angioimmunoblastic subtype, which a subtype is thought to have a different biology than other PTCL subtypes and lower chemosensitivity. Further analysis of this subtype is warranted.

In the case of C#CCC(Cc1cnc2nc(N)nc(N)c2n1)c1ccc(C(=O)N[C@@H](CCC(=O)O)C(=O)O)cc1 (mixture of isomers) [Pralatrexate, (2S)-2-[[4-[(1RS)-1-[(2,4-diaminopteridin-6-yl)methyl]but-3-ynyl]benzoyl]amino]pentanedioic acid], the “Median time on treatment” value (relapsed/refractory PTCL; 20 patients with prior ICE/RICE/DICE) is reported as 139 days, the “Median time on treatment” value (relapsed/refractory PTCL; remaining 89 patients) is reported as 64 days and the “Discontinued due to progressive disease (PD)” value [1] is reported as 62%. For the same compound, the “Discontinued due to stem cell transplant after achieving a response to pralatrexate” value [1] was 2% and the “Discontinued for other reasons” value [1] was 7%.
